Values from PubChem BioAssay AID504774 (Drosophila RNAi Screening Center, 2011)

Aim: 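Knock-downs that shift viability of MMS-exposed cells relative to untreated ones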 (primary screen)
Cell system: Drosophila Kc167 cells
Knock-down reagent: long dsRNA against Drosophila genes, about 0.25 µg dsRNA per well
Time to read-out: about 6 days: 3 days knock-down, then 3 days with or without MMS
Treatment: methyl methanesulphonate 0.004% (w/v) for 3 days after knock-down
Detection: 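Viability in wells given MMS, read as ATP luminescence, normalised by quantiles plate by plate and averaged across replicates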
Reading the numbers: mean viability with MMS and viability with MMS: higher = more surviving cells after MMS
The deposit covers about 23,000 reagents; this is a random part of those with a known target gene and a result. 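Values are quantile-normalised luminescence on an arbitrary scale; higher means more cells surviving MMS.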 A plus sign joins genes that one reagent is predicted to hit. No sequences are given here.

gene	amplicon	mean viability with MMS	viability with MMS, replicate 1	viability with MMS, replicate 2
dgt3	DRSC04349	3.52e6	3.64e6	4.12e6
Ate1	DRSC05925	3.71e6	4.11e6	4.30e6
Acsx2	DRSC14308	3.47e6	3.76e6	4.13e6
CG15236	DRSC04970	3.72e6	4.26e6	4.03e6
CG15236	DRSC21396	3.20e6	3.75e6	3.74e6
CG15236	DRSC23025	3.72e6	4.18e6	4.26e6
CG3032	DRSC18266	3.49e6	3.96e6	3.96e6
CG1983	DRSC15410	3.58e6	4.00e6	4.11e6
His2B:CG33870 + His2B:CG33868 + His2B:CG33882 + 21 more	DRSC03757	3.02e6	3.61e6	3.68e6
CG3638	DRSC18533	3.35e6	3.85e6	3.74e6
CG3651	DRSC03730	3.62e6	4.09e6	4.12e6
salm	DRSC03606	3.57e6	4.23e6	3.88e6
CG14669	DRSC12065	3.11e6	3.65e6	3.66e6
CG14669	DRSC12067	3.56e6	4.20e6	3.86e6
CG14669	DRSC12068	3.63e6	4.20e6	3.98e6
CG14669	DRSC12255	3.68e6	4.16e6	4.16e6
Dhit	DRSC07411	3.69e6	4.13e6	4.24e6
CG1637	DRSC18865	3.45e6	3.92e6	3.92e6
CG1637	DRSC19748	3.59e6	4.09e6	4.12e6
CG1637	DRSC19749	3.48e6	3.93e6	3.96e6
toe	DRSC09174	3.44e6	3.86e6	3.95e6
toe	DRSC09783	3.23e6	3.57e6	3.69e6
CG14238	DRSC14732	3.41e6	3.93e6	3.74e6
Cnep1r2	DRSC10950	3.77e6	4.25e6	4.31e6
CG32821 (retired record)	DRSC22544	3.63e6	4.05e6	4.13e6
CG6126	DRSC15971	3.53e6	3.92e6	4.09e6
PGS1	DRSC16304	3.54e6	4.11e6	3.91e6

Looked up above.
CG15236 [DRSC04970], mean viability with MMS: 3.72e6
For “viability with MMS, replicate 1”, toe [DRSC09783] has 3.57e6
Value of CG15236 [DRSC21396] under “viability with MMS, replicate 2”: 3.74e6
For “viability with MMS, replicate 2”, CG14669 [DRSC12255] is entered as 4.16e6
Result for CG3638 [DRSC18533] in “viability with MMS, replicate 2”: 3.74e6
CG14669 [DRSC12068], mean viability with MMS = 3.63e6

Additional reagents follow.
gene	amplicon	mean viability with MMS	viability with MMS, replicate 1	viability with MMS, replicate 2
CG6426	DRSC06985	3.56e6	4.02e6	4.04e6
CG11247	DRSC11643	3.81e6	4.18e6	4.32e6
CG11247	DRSC21901	3.59e6	4.12e6	3.99e6
side-IV	DRSC14833	3.58e6	4.15e6	3.98e6
Hers + amn	DRSC20306	3.64e6	4.20e6	3.99e6
Smug	DRSC15762	3.56e6	4.16e6	3.92e6
Dic3	DRSC06058	3.64e6	4.18e6	4.00e6
woc	DRSC15928	3.60e6	4.10e6	4.06e6
CG31076	DRSC16017	3.63e6	4.04e6	4.17e6
Diedel3	DRSC19544	3.54e6	4.01e6	4.02e6
mei-P26	DRSC17735	2.67e6	2.95e6	3.12e6
mei-P26	DRSC23049	3.70e6	4.19e6	4.20e6
CG5214	DRSC15739	3.82e6	4.09e6	3.89e6
CG5214	DRSC22842	3.55e6	4.00e6	4.05e6
Dref	DRSC03319	3.24e6	3.75e6	3.53e6
Ubc4	DRSC11312	3.48e6	3.95e6	3.93e6
CG3257	DRSC04351	3.57e6	4.12e6	4.10e6
for	DRSC00195	3.08e6	3.59e6	3.53e6
for	DRSC00818	3.44e6	3.91e6	3.80e6
